The full ranking holds about 33,000 sequences; the median of “E-score (-0.5 to 0.5)” is about -0.0059, and the highest 2% start at about 0.26. Some of the results follow.
What follows are sequences tested against T1, Cin5 (UniProt P40917) (assay: PBM E-score (8-mer binding enrichment) (E-score (-0.5 to 0.5)); higher = stronger / more preferred TF binding). Details: protein concentration: 100 nM; construct: GST-full length.
T1 sequence: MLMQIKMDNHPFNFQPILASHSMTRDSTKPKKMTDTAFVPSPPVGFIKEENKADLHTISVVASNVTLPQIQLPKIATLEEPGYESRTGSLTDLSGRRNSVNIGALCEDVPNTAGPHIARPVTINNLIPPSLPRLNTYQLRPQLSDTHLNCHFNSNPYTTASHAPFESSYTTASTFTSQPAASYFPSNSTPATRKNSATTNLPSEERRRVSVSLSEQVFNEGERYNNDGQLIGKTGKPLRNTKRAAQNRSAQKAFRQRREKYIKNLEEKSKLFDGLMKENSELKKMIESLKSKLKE
Summary of the method: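 Each ungapped eight-base word and its reverse complement, pooled, received an E-score from the Universal PBM Analysis Suite. Underlying scans, normalised with masliner, recorded fluorescent anti-GST bound to GST-tagged yeast transcription factors. These were applied at about 100-200 nM to universal all-10-mer Agilent arrays double-stranded by primer extension.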

Row | Sequence | PBM E-score
1 | ACGTTTTC | 0.127
2 | GTCTGAAC | -0.16
3 | AAGAATTC | 0.0337
4 | AGGCAACC | -0.00586
5 | ATTAAAAA | 0.162
6 | GTCCGGCA | -0.176
7 | AAAGGCGC | -0.0471
8 | TCAAGTCA | 0.0301
9 | AACCAGGC | -0.0368
10 | TCGTGAGA | -0.0829
11 | CTCGCACC | -0.0787
12 | AGTACGGC | 0.0954
13 | GCTTGAGA | -0.148
14 | CTAGACGA | -0.0959
15 | ATAGTTTA | 0.0429
16 | ACACCGGG | -0.175
17 | AGACTGGG | -0.1
18 | TATTCTGA | 0.0462
19 | CTATGGAG | -0.139
20 | AAGTTTAC | 0.104
21 | GATGACCC | -0.1
22 | ACTCGAAC | 0.0393
23 | AGACTGCG | -0.0973
24 | CCAGCTCC | -0.227
25 | GAATTGCA | 0.161

Row | Sequence | PBM E-score
26 | ATACCTAC | 0.046
27 | CCATACGA | 0.074
28 | ACAATCTG | 0.0544
29 | TAGTAAAA | 0.137
30 | ATCAAGTA | 0.198
31 | AGTATGTA | 0.161
32 | CGACTGTA | -0.176
33 | ACACCGGC | -0.113
34 | TATCCTAA | 0.0208
35 | AAGCAGTC | 0.0177
36 | CTTCACTA | 0.0658
37 | ACCGAGGA | -0.111
38 | ACGCTAGA | -0.0965
39 | TAGTGCCA | -0.143
40 | TAAAGATA | 0.171
41 | GGGTGCAA | 0.117
42 | GGGAAAGA | -0.124
43 | GTCAATGA | 0.115
44 | ACTGAGCT | -0.0801
45 | CTGAGATA | 0.0496
46 | AAAGACTT | -0.292
47 | CAAGGCGC | -0.179
48 | AAAATGCG | -0.0174
49 | AGTCGTCC | -0.121
50 | ACTGCCAC | -0.012

Row | Sequence | PBM E-score
51 | AAGCATAC | 0.114
52 | GGAGCATA | 0.0966
53 | GTTTTCAA | 0.146
54 | CACCGTTC | -0.0132
55 | CCGCCACG | -0.222
56 | ACTATGGG | -0.0453
57 | ACTTGGTC | 0.101
58 | ATCATGGC | 0.0952
59 | ACATGTCG | 0.0755
60 | GGCGCTGA | 0.0107
61 | AATCGTTA | 0.0448
62 | ATATGCCC | -0.087
63 | TCCACGGA | 0.198
64 | ATGCCAGG | -0.104
65 | ATAGGAAG | 0.0698
66 | AGGAACTA | 0.0267
67 | CGTGATCA | 0.154
68 | CTATCATC | -0.0686
69 | ACTGAGGG | -0.211
70 | CGGTCCAA | -0.26
71 | ATAAAGCA | 0.0862
72 | ATATCAAG | 0.246
73 | CATACAGG | -0.114
74 | CCCCTGAG | -0.102
75 | AGATGTAA | 0.169

Row | Sequence | PBM E-score
76 | AAACTTAG | -0.00442
77 | ATCTGCCC | -0.0664
78 | TCGATACA | 0.226
79 | TTCGCGAA | 0.227
80 | CATAGATA | 0.183
81 | CGGAAAGC | 0.16
82 | CCAAGTGA | 0.00582
83 | ATCGCACC | -0.0935
84 | AAGGTTCC | -0.0349
85 | GGCGTACC | -0.0778
86 | CCGATAAC | 0.0223
87 | ACAGTGAT | 0.174
88 | ATTAGGAG | 0.0343
89 | ATGGAAGC | 0.00206
90 | CAGACATC | -0.00699
91 | AATGCGGG | 0.273
92 | GGCGGTAA | 0.0493
93 | GTTTTGAA | 0.0635
94 | CCAGGAGA | -0.119
95 | CATGGAGA | 0.0291
96 | GGATCGCA | 0.0218
97 | CCCCTAAA | -0.192
98 | CCTGATAA | 0.0215
99 | TACTTTGA | 0.0811
100 | TAACGGTA | 0.0738

Row | Sequence | PBM E-score
101 | GGGTCCGA | -0.221
102 | CCTAACAA | 0.095
103 | CATCGCTC | -0.152
104 | CAGGCTGC | -0.175
105 | GTATTAAA | 0.149
106 | TAGGTAGA | 0.0877
107 | AAGTAAAG | 0.011
108 | ATTCCCAG | 0.0992
109 | CCTTCAAA | -0.0128
110 | GTACTCAC | 0.13
111 | TTGTCAAA | -0.0051
112 | CTGGCGAC | -0.162
113 | AACCGTCA | -0.0787
114 | AACCTTCG | 0.0239
115 | CGTCTCTA | -0.21
116 | GCAAATAA | 0.144
117 | ATATGCTA | 0.152
118 | CCTCCCAA | -0.0527
119 | GAACTAGA | -0.00859
120 | ACGCTGCT | -0.0727
121 | CAAATTGC | 0.133
122 | GGAGGAGA | -0.152
123 | CTTGAATA | 0.0347
124 | GCTTCTAC | -0.127
125 | AGCAATGG | -0.0829

Six entries picked at random from the list so far, as already listed:
Row | Sequence | PBM E-score
104 | CAGGCTGC | -0.175
117 | ATATGCTA | 0.152
115 | CGTCTCTA | -0.21
123 | CTTGAATA | 0.0347
107 | AAGTAAAG | 0.011
110 | GTACTCAC | 0.13

Continuation:

Row | Sequence | PBM E-score
126 | AGGACAGA | 0.0352
127 | ATGGTGAG | 0.00846
128 | GACCAGTC | -0.195
129 | CCGGTGAC | -0.234
130 | ACTAGCAC | -0.0242
131 | AGTTGTAA | 0.11
132 | ATTTTATA | 0.272
133 | CTCCGATA | -0.0279
134 | CGCGGGAA | 0.0964
135 | GTGAGTTA | 0.0327
136 | AGTGATGA | 0.0434
137 | AGTATTAA | 0.242
138 | CTCGCAAG | -0.00586
139 | ACCCAGGC | -0.154
140 | CCGCCGAA | 0.0209
141 | CAACTGAA | 0.055
142 | ATGGGGCA | 0.0318
143 | GGAGATCA | 0.114
144 | AAGACATA | 0.172
145 | CTCGGGGA | -0.0346
146 | AACAAGTC | 0.0146
147 | CTCCAGAA | -0.191
148 | ACATCTAT | 0.218
149 | AGCACCCC | -0.0702
150 | GGACATAA | 0.08

Row | Sequence | PBM E-score
151 | CCTCACTC | -0.00675
152 | CGGCGGTC | -0.269
153 | AGGCTAAC | -0.0455
154 | GTGTTGTA | 0.0125
155 | CAACACCC | 0.0126
156 | CTCGCCCC | -0.135
157 | TAGTAAGA | 0.146
158 | ATAATAAG | 0.225
159 | ATAGCTTG | -0.0958
160 | GTAAAATA | 0.1
161 | ACGCTGAT | 0.0851
162 | AACCGGCT | 0.0113
163 | CAGTGTCC | -0.152
164 | CCACCTTA | 0.0255
165 | GTCAGGAA | -0.0079
166 | GCGTCCAC | -0.283
167 | AATTGGTG | 0.173
168 | ACGGCGTC | -0.0496
169 | CGTATAAC | 0.043
170 | ATACTGCC | 0.141
171 | GCTTAAAA | 0.025
172 | CATTTCCA | 0.112

In a second layout: entries from further up.
Row,Sequence,PBM E-score
3,AAGAATTC,0.0337
40,TAAAGATA,0.171
48,AAAATGCG,-0.0174
116,GCAAATAA,0.144

Reference: the supplement of paper PMC3334620
